{"sequences": {"note": "Chains of the proteins cited; added tags and fusions are not shown. Residues count along the entry.", "UniProt P11362, residues 22-376": "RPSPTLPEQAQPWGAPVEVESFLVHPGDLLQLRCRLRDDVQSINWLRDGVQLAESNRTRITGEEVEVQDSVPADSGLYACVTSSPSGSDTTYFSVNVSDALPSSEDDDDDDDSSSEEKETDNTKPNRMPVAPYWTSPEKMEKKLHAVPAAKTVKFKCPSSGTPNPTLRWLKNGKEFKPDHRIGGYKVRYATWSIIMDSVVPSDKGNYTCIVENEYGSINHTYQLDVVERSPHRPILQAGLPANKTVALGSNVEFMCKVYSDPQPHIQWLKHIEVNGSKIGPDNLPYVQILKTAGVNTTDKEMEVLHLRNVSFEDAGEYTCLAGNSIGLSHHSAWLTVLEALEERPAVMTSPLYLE", "UniProt P29317, residues 24-537": "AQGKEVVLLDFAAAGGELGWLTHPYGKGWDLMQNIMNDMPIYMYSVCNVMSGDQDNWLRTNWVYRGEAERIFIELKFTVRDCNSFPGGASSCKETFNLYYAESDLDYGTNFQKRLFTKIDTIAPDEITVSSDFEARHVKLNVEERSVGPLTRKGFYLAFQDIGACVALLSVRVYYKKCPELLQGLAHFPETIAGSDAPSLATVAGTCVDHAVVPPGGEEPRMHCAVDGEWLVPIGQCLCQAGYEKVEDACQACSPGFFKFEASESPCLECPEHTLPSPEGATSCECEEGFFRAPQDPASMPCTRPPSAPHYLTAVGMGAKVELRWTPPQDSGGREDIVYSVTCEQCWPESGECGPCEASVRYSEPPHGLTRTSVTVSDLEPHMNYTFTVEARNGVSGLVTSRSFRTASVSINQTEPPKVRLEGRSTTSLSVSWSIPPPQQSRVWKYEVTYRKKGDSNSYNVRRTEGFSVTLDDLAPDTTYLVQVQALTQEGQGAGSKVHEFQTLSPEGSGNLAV"}, "source": "paper PMC3327102", "binders": {"B1": {"name": "OPCML (protein, UniProt Q14982 28-322)", "chain": "GVPVRSGDATFPKAMDNVTVRQGESATLRCTIDDRVTRVAWLNRSTILYAGNDKWSIDPRVIILVNTPTQYSIMIQNVDVYDEGPYTCSVQTDNHPKTSRVHLIVQVPPQIMNISSDITVNEGSSVTLLCLAIGRPEPTVTWRHLSVKEGQGFVSEDEYLEISDIKRDQSGEYECSALNDVAAPDVRKVKITVNYPPYISKAKNTGVSVGQKGILSCEASAVPMAEFQWFKEETRLATGLDGMRIENKGRMSTLTFFNVSEKDYGNYTCVATNKLGNTNASITLYGPGAVIDGVN"}}, "test_in_all_cases": "co-IP; immunoprecipitation; bait, cells and conditions not told (meeting abstract)", "key": {"[1]": {"target": "FGFR1 extracellular domain (UniProt P11362)"}, "EGFR": {"target": "EGFR (UniProt P00533)"}, "[2]": {"target": "EphA2 extracellular domain (UniProt P29317)"}, "[3]": {"target": "HER2 extracellular domain (UniProt P04626)"}}, "note": "No constants are given. Whether binding was seen depends on the method and setting. Binding seen in cells or lysates may run through a third protein. Some entries that bind do so weakly or less than the wild type.", "data": [{"binder": "B1", "values": [{"measurement": "binding", "setting": "[1]", "result": "binds"}, {"measurement": "binding", "setting": "EGFR", "result": "no binding"}, {"measurement": "binding", "setting": "[2]", "result": "binds"}, {"measurement": "binding", "setting": "[3]", "result": "binds"}]}]}
